Results as given in US20240366649A1, “4-ETHYNYL-3-HYDROXY-TETRAHYDROFURANYL-ADENINE PHOSPHORAMIDATES AND RELATED COMPOUNDS AND THEIR USE IN TREATING MEDICAL CONDITIONS” (ROME THERAPEUTICS, INC., priority 2021, published 2024).

Molecular target: LINE1 reverse transcriptase (Homo sapiens, UniProt O00370)
Test: Transient artificial-intron Cis LINE1 reporter assay
Type: cell-based
Details: read-out: IC50 for inhibiting FLuc luminescence; HEK 293 cells; ratio FLuc/RLuc reports LINE1 activity; tested up to 100 μM
Description: Intron-disrupted Firefly luciferase (FLuc) expression cassettes were generated as described by Xie, Y. et al. “Characterization of L1 retrotransposition with high-throughput dual-luciferase assays,” Nucleic Acid Res. (2011) Vol. 39, No. 3, e16. In addition, the plasmid contained an intact Renilla luciferase (RLuc) expression cassette on the vector backbone, in order to normalize transfection efficiency and measure potential cell toxicity.
HEK 293 cells were seeded in 96-well plates at 1,000 cells/well in 55 μL and grown for 24 hours. Cells were transfected with FuGeneHD (Promega) following the manufacturer's protocol. Each well received 0.133 ng plasmid, 0.4 μL FuGeneHD reagent, and 4.5 μL GlutaMAX-I-supplemented Opti-MEM I reduced-serum medium (Invitrogen). Cells were simultaneously treated with test compound serially diluted starting at 100 μM in a 3-fold dilution dose response.
Luminescence was measured using the Dual-Glo Luciferase Assay System (Promega) following the manufacturer's instructions. The ratio between FLuc and RLuc gene expression was used to report LINE1 activity.

SMILES: C#C[C@]1(CO[P@@](=O)(N[C@@H](C)C(=O)OC(C)C)Oc2ccccc2)O[C@@H](n2cnc3c(N)nc(Cl)nc32)C[C@@H]1O [Compound I-1, Isopropyl ((S)-(((2R,3S,5R)-5-(6-amino-2-chloro-9H-purin-9-yl)-2-ethynyl-3-hydroxytetrahydrofuran-2-yl)methoxy)(phenoxy)phosphoryl)-L-alaninate]
- IC50: 20 nM

Structures were worked out from names or drawings and are uncertain.
